PMC2222952, “Structural and Biochemical Bases for the Inhibition of Autophagy and Apoptosis by Viral BCL-2 of Murine γ-Herpesvirus 68” (PLoS Pathogens, 2008)

System: human BCL-2 (residues 1–50 and 92–207)
Test: Isothermal titration calorimetry (ITC) of BCL-2 with Beclin1 fragment
Assay type: binding
Conditions: 25 °C, 20 mM Tris-HCl (pH 7.4), 100 mM NaCl, Table S2
Experimental: Figure 3 M11 Interacts Much More Tightly with Beclin1 than BCL-2 and BCL-XL (A) ITC analysis. The measurement was carried out by titrating 0.1 mM of M11 or BCL-2 into 5 μM of the indicated Beclin1 fragment. The K D values were deduced from curve fittings of the integrated heat per mol of added ligand. (B) M11–Beclin1 interface is tighter than that of BCL-XL–Beclin1. The structures of M11–Beclin1 fragment (left) and BCL-XL–Beclin1 peptide (right) are compared side by side. In both the structures, the five consensus BH3 residues of the bound α-helices and the side chains of M11 or BCL-XL interacting with those residues are shown as sticks and labeled. Noted are the tighter interactions of the N-terminal region of Beclin1 with the α3 helix of M11 than the corresponding region in the BCL-XL–Beclin1 helix (indicated by dotted circles).
Each of the DNA fragments coding for M11 (residues 1–137), mouse BCL-XL (residues 1–44 and 85–196) or mouse Beclin1 (residues 101–267) was cloned into pPROEX HTa. A plasmid containing the DNA segment coding for human BCL-2 (residues 1–50 and 92–207) was also constructed. The resulting protein lacks the internal long loop (residues 51–91) and contains a replacement of residues 35–50 with residues 33–48 of BCL-XL, which was necessary for the solubility of the protein as reported earlier. Each construct was introduced into the E. coli BL21(DE3) strain. The proteins were expressed at 21 °C overnight and purified using a Ni-NTA column and a Hitrap Q anion exchange column.
All measurements were carried out at 25 °C on a MicroCalorimetry System (MicroCal). Protein samples were dialyzed against the solution containing 20 mM Tris-HCl (pH 7.4) and 100 mM NaCl. The samples were degassed for 20 min and centrifuged to remove any residuals prior to the measurements. Dilution enthalpies were measured in separate experiments (titrant into buffer) and subtracted from the enthalpies of the binding between the protein and the titrant. Data were analyzed using the Origin software (OriginLab Corp.).

B1: Beclin1(101–267): mouse Beclin1 fragment containing residues 101–267, expressed as a soluble form in E. coli (protein)
chain: ASDGGTMENLSRRLKVTGDLFDIMSGQTDVDHPLCEECTDTLLDQLDTQLNVTENECQNYKRCLEILEQMNEDDSEQLQRELKELALEEERLIQELEDVEKNRKVVAENLEKVQAEAERLDQEEAQYQREYSEFKRQQLELDDELKSVENQVRYAQIQLDKLKKTNV
  -T∆S (BCL-2 + Beclin1): 2.48 kcal/mol
  ∆G (BCL-2 + Beclin1): -7.88 kcal/mol
  ∆H (BCL-2 + Beclin1): -10.36 ± 2.08 kcal/mol
